Values of other authors, collected in patent US20230126271A1, “DEGRADER-ANTIBODY CONJUGATES AND METHODS OF USING SAME” (Anglex, Inc., priority 2020, published 2023).
For at least one compound, name, drawing or mass did not settle the structure.

Conditions: Phase II FALCON study, reduced from 16.2

COc1ccc(/C=C\c2cc(OC)c(OC)c(OC)c2)cc1OP(=O)(O)O [CA4P, Combretastatin]
overall survival: 13.6 months
